These are yes or no findings as the source states them, for the method shown. Binding seen in cells or lysates may run through a third protein. Some results given as binding are weak or reduced against the parent protein; the word gives no strength.
Target: Myosin heavy chain 9 (MYH9) (mouse (endogenous in MLE-12)) (UniProt Q8VDD5)
Assay: co-IP; cells lysed in RIPA buffer with 1% protease inhibitors; precleared lysate incubated overnight at 4°C with anti-Myh9 or anti-IgG antibody and Protein A sepharose; beads washed 3 times with PBS; Western blot

Protein sequences, listed by entry. Tags and fused reporters are not part of them.
UniProt Q8VDD5: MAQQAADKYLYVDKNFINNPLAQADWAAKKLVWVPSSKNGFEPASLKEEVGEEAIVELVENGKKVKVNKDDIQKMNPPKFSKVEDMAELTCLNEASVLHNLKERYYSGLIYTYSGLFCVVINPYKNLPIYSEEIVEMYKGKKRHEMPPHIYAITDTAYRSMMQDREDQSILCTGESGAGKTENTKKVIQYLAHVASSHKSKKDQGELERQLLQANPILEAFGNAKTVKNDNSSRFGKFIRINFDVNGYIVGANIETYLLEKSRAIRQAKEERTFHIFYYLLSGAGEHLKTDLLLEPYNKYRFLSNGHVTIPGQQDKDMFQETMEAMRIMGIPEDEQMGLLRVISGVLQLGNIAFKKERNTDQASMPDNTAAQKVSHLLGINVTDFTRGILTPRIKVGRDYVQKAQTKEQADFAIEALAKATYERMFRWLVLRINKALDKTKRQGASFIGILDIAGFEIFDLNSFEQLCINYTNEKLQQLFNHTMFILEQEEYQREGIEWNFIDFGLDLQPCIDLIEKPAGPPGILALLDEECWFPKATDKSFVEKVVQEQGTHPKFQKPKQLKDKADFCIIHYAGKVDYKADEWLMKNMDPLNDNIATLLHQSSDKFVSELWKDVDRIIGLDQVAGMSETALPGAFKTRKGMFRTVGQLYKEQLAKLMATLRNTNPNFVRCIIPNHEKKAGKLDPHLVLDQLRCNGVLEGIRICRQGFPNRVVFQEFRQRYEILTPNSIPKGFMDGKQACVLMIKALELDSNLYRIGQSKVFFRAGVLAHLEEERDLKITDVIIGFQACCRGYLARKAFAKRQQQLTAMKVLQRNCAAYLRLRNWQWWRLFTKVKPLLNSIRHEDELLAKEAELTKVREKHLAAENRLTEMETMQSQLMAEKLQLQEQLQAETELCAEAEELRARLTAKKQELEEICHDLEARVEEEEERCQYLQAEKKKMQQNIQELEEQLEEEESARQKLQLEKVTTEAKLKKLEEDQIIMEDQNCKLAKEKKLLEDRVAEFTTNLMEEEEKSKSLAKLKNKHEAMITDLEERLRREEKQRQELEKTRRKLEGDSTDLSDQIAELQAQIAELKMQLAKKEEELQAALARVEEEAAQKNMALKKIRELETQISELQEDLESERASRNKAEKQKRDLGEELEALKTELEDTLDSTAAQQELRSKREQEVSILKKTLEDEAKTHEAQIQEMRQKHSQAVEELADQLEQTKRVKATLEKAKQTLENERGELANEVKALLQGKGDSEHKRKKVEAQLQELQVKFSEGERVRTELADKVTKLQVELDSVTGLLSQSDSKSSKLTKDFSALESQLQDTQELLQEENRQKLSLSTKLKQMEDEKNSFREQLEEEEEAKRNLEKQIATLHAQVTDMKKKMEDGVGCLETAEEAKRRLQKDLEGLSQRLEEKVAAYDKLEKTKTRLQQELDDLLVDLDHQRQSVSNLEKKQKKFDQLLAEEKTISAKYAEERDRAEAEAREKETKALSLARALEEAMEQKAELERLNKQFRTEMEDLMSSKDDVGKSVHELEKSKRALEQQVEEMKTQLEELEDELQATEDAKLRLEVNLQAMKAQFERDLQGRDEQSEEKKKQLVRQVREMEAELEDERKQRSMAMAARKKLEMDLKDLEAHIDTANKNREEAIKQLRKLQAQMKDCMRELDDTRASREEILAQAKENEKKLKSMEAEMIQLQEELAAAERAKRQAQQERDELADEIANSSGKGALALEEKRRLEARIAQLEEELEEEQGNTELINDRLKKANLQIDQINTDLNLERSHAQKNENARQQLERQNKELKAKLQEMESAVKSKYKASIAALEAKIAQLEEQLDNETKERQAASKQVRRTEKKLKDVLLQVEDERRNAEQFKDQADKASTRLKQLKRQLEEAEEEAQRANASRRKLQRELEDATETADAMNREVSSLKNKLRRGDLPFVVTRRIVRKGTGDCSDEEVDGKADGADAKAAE

binding: binds
B1: osteoclast stimulatory transmembrane protein (OC-STAMP) (protein, UniProt Q9D611 1-498)
chain: MRTIRAATEHLFGLGWKFWRLGICKAVVPLQAAWKAFSQPVPASCNELLTQLLLCVSLASLIAGLAHHWLVSLQLYPLGPPALVTSLCGLFVFLSLGLVPPIRCLFVLSVPTLGSKQGRRLLLSYSAANLAVAVVPNVLGNVRAAGQVLSCVTEGSLESLLNTTYQLRQAARELGPASRAGSRSLTFEVEGKGSAFRLHMHTITQEILEDFSGLEFLARAALGTQRVVTGLFLLGLLGESAWYLHRYLTDLRFDNIYATRQLVRQLAQAGATHLLTSPPPWLLQTAQPKLSREELLSCLLRLGLLALLLVATAVTVASDYGAFLLAQAAVAWAQKLPTVPITLTVKYDASYKVLDFILFVLNQPPVESVFASMQRSFQWELRFTPHDCHLPQAQPPRVTAALAAGALQLLAGATLVLQAYAWRLRHTIAASFFPDQEARRLSHLQARLQRRHNQSDHLNKQPGTMATRESRKPGQGTRTLESQGPQAHDSLGPPYDLE
